These are yes or no findings as the source states them, for the method shown. Binding seen in cells or lysates may run through a third protein. A result given as binding can be weak or reduced; the word gives no strength.
target: T1, rpmC (P. aeruginosa (endogenous in strain PAO1)) (UniProt Q9HWE3); test: cross-linking
T1 sequence: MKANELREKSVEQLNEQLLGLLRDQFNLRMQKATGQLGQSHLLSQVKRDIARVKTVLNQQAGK

Row | Substance | binding
1 | PHIKZ108 (Pseudomonas phage ϕKZ) | binds
2 | PHIKZ175 (Pseudomonas phage ϕKZ) | binds
3 | PHIKZ285 (Pseudomonas phage ϕKZ) | binds
